# Results taken from PubChem BioAssay AID602346 (Broad Institute, 2012).
# Screen size: about 340,000 compounds; about 1,200 (0.35%) were called active. The inconclusive results got no clear call from the source; some entries with a clear call stand among them for comparison. Rule as the data show it: active = inhibition above about 50% (passing the limit was not always enough); inconclusive = no clear call, values can overlap the other calls; inactive = below about 31%.
# Test: HIV Vif self-association inhibitors, primary screen, imaging, HEK293T, single point (AID 602346)
# Settings: HEK293T cells, Vif self-association by quenched fluorescence, 24 h, at 7.49 µM, stronger effect = higher value
row,Structure (SMILES),inhibition
1,O=C(Cc1ccccc1)OCC(=O)c1ccc(F)cc1,active: 87.3%
2,O=c1[nH]c(=O)n(Cc2ccccc2)c(O)c1C=NCCN1CCNCC1,inactive: 1.71%
3,Cc1nccc2c1[nH]c1ccc(Br)cc12,inconclusive: 33.2%
4,ClCCN(CCCl)c1ccc(C=Cc2ccncn2)cc1,inconclusive: 49.1%
5,O=c1cccc2n1C[C@H]1C[C@@H]2CN2CCCC[C@@H]12,inactive: -7.2%
6,O=P1(c2ccccc2)Nc2ccccc2N1c1ccccc1 (configuration not stated),inconclusive: 46.1%
7,NC(=O)c1cc(N2CC2)c([N+](=O)[O-])cc1[N+](=O)[O-],active: 78.5%
8,O=CC(Cl)P(=O)(N1CCCCC1)N1CCCCC1 (configuration not stated),inconclusive: 28%
9,CC(C)(C)NC(=O)NC(=O)CN1CC=C(c2ccccc2)CC1,inactive: -0.939%
10,O=c1c2ccccc2[se]n1-c1ccccc1,inactive: -6.36%
11,CC(=O)O[C@@]12CO[C@@H]1C[C@H](OC1OCC(O)C(O)C1O)[C@@]1(C)C(=O)[C@H](O)C3=C(C)[C@@H](OC(=O)[C@H](O)[C@@H](NC(=O)c4ccccc4)c4ccccc4)C[C@@](O)([C@@H](OC(=O)c4ccccc4)C12)C3(C)C (some centres not stated),inactive: 28.9%
12,CC1=C(C(=O)Nc2ccccc2)S(=O)(=O)CCO1,inconclusive: 27.9%
13,Cc1ccc(C(C)C)c(OCC#CCN2CCCC2)c1,inconclusive: 38.5%
14,COc1ccccc1OCC(=O)N1CCN(Cc2ccc3c(c2)OCO3)CC1,inactive: -0.44%
15,COc1ccc2c(c1OC)C(=O)OC2C1c2cc3c(cc2CCN1C)OCO3 (configuration not stated),inactive: 8.77%
16,COc1ccc(-c2cc(-c3ccccc3)[n+](C)c(-c3ccccc3)c2)cc1,inactive: -24.1%
17,CC12CCC(=O)C=C1CCC1C2CCC2(C)C(O)(C(=O)CO)CCC12O (configuration not stated),inconclusive: 38.1%
18,O=c1[nH]c(=O)n(Cc2ccc(F)cc2)c(O)c1/C=N/Nc1ccccc1,inconclusive: 25.8%
19,CSc1ncc(CN2CCCC(C(=O)c3cccc(Cl)c3)C2)cn1 (configuration not stated),inactive: -1.83%
20,Cn1c(O)c(C(=Nc2ccccc2)SCc2ccc(Cl)cc2)c(=O)n(C)c1=O,inconclusive: 28.8%
21,CCc1nccc2c1[nH]c1ccccc12,inconclusive: 30.5%
22,COC(=O)C1C(OC(=O)c2ccccc2)CC2CCC1N2C (configuration not stated),inconclusive: 29.5%

row,Structure (SMILES),inhibition
1,CC1=Nc2ccccc2/C1=C/c1c(O)[nH]c(=O)[nH]c1=O,inconclusive: 38.8%
2,CC(=O)O[C@@]12CO[C@@H]1C[C@@H](O)[C@@]1(C)C(=O)[C@H](O)C3=C(C)[C@@H](OC(=O)[C@H](O)[C@@H](NC(=O)c4ccccc4)c4ccccc4)C[C@@](O)([C@@H](OC(=O)c4ccccc4)C12)C3(C)C (some centres not stated),inconclusive: 40.8%
3,NC(Cc1ccc(O)cc1)C(=O)NN=Cc1ccc(N(CCCl)CCCl)cc1 (configuration not stated),inconclusive: 49.4%
4,O=C(c1cccc2ccccc12)C1CCCN(Cc2ccon2)C1 (configuration not stated),inactive: 1.64%
5,CCNC(=O)C1OC(n2cnc3c(N)ncnc32)C(O)C1O (configuration not stated),active: 50.7%
6,C[C@]12CC[C@H](O)C[C@H]1CC[C@@H]1[C@@H]2CC[C@]2(C)C(=O)CC[C@@H]12,inconclusive: 44.2%
7,COc1cc2c(c(OC)c1OC)-c1ccc(O)c(=O)cc1C(NC(C)=O)CC2 (configuration not stated),inconclusive: 34.6%
8,O=C(NC1(C(F)(F)F)Oc2ccccc2O1)N1CCC2(CC1)OCCO2,inconclusive: 37.6%
9,CN1CCCN(c2ccc([N+](=O)[O-])nc2)CC1,active: 52.4%
10,N#C/C=C/C#N,inconclusive: 22.9%
11,C[C@]12CC[C@@H](O)CC1=CCC1C2CC[C@@]2(C)C1CC[C@@H]2N (some centres not stated),inconclusive: 31.5%
12,Cc1cc(/C=C2/C(=O)NC(=O)N(C)C2=O)c(C)n1-c1ccccc1,inconclusive: 35.4%
13,C1CN(P2(N3CC3)=NP(N3CC3)(N3CC3)=NP(N3CC3)(N3CC3)=N2)CCO1 (configuration not stated),inactive: 0.702%
14,CC(=O)c1ccc2c(c1)C1C(Cl)C(Sc3ccccc3[N+](=O)[O-])CC1C(c1ccccc1[N+](=O)[O-])N2 (configuration not stated),inactive: -18.1%
15,CC1=NN=C(c2ccc(N)cc2)c2cc3c(cc2C1)OCO3,inconclusive: 39.5%
16,CCOC(=O)C(C)(CC)NC(=O)CSP(=S)(OCC)OCC (configuration not stated),inconclusive: 30.8%
17,COC(=O)C1C2c3ccccc3C(c3ccccc32)C1(C)C(=O)OC (configuration not stated),inconclusive: 32.7%
18,COC(=O)Cn1cc(/C=C2\C(=O)NC(=O)N(c3ccc(OC)cc3)C2=O)c2ccccc21,inconclusive: 34.4%
19,COc1ccc(OC)c(NC(=O)N2C[C@H]3C[C@@H](C2)c2cccc(=O)n2C3)c1,inconclusive: 46.8%
20,C=CCn1c(O)c(C(C)=Nc2ccc(N(CC)CC)cc2)c(=O)[nH]c1=O,inconclusive: 46.9%
21,O=C(O)C1C2CCC(O2)C1C(=O)Nc1ccc(F)c(F)c1 (configuration not stated),inactive: -4.55%
22,COc1cccc(C(c2nnnn2C(C)(C)C)N2CCC3(CC2)C(=O)NCN3c2ccccc2)c1OC (configuration not stated),inactive: 3.43%

row,Structure (SMILES),inhibition
1,CC1(C)C2CC=C(CN3CCC(O)CC3)C1C2 (configuration not stated),inconclusive: 47%
2,COc1ccc(Br)cc1CN1CCN(C(=O)Cc2ccccc2)CC1,inconclusive: 39.7%
3,CC(=O)c1cc(C(C)=O)c(C)[n+](C)c1C,active: 91%
4,CC(=O)O[C@@H]1CC[C@]2(C)C3CC[C@]4(C)C(=O)[C@H](O)CC4C3[C@@H](OC(C)=O)C[C@H]2C1 (some centres not stated),inconclusive: 48%
5,CC/C=C/CC(=O)N[C@@H](c1ccccc1)[C@@H](O)C(=O)O[C@H]1C[C@@]2(O)[C@@H](OC(=O)c3ccccc3)C3[C@](C)(C(=O)[C@H](OC(C)=O)C(=C1C)C2(C)C)[C@@H](O)C[C@H]1OC[C@@]31OC(C)=O (some centres not stated),inconclusive: 44.8%
6,CCCCn1nnnc1C(CCSC)N1CCC(n2c(=O)[nH]c3ccccc32)CC1 (configuration not stated),inactive: -1.71%
7,CCC1CN1P(=O)(c1ccccc1)N1CC1CC (configuration not stated),inactive: 19.8%
8,CNC(=O)Oc1ccc2c(c1)C(=O)c1ccccc1CO2,inactive: -8.25%
9,CN1C(=O)/C(=C/C=C/c2ccco2)C(=O)NC1=S,inconclusive: 33.3%
10,O=C1NC(=O)C(=Cc2cc([N+](=O)[O-])ccc2N2CCCCC2)C(=O)N1,active: 59%
11,CSCCC(N=Cc1c(O)n(-c2ccc(Cl)cc2)c(=O)[nH]c1=O)C(=O)OC(C)(C)C (configuration not stated),inconclusive: 37%
12,CC(C)(Cl)[N+](=O)[O-],inconclusive: 41.3%
13,CCCOc1ccc(C(=O)NC(=S)N2C[C@H]3C[C@H](C2)c2cccc(=O)n2C3)cc1,inconclusive: 7.83%
14,CCCCc1nc(N2CCNCC2)c(C#N)c2c1CSC(C)(C)C2,inconclusive: 24.1%
15,NC12CN3CN(CN(C3)C1)C2 (tested in a mixture with another compound),inconclusive: 31.6%
16,CCCCn1c(O)c(C(CC)=Nc2ccc(OC)cc2OC)c(=O)[nH]c1=O,inactive: -1.38%
17,C[C@]12CCC3C(C(=O)C[C@H]4C[C@@H](O)CC[C@]34C)C1CCC2=O (some centres not stated),inconclusive: 36.3%
18,OC1(c2ccc(F)cc2)CCNC1 (configuration not stated),active: 82%
19,CC1(CCO)C(=O)NC(=S)NC1=O,inconclusive: 34.2%
20,O=C(Nc1ccc2c(c1)OCO2)c1cn(Cc2ccc(F)cc2)nn1,active: 53.5%
21,O=C(Cc1ccccc1)OCn1nnc2ccccc2c1=O,active: 140%
22,COc1cccc(-c2sc3ccccc3c2-c2ccc(OCCN3CCOCC3)cc2)c1,inconclusive: 37.2%

# An excerpt from above in order of count of non-hydrogen atoms, descending:
row,Structure (SMILES),inhibition
13,CCCOc1ccc(C(=O)NC(=S)N2C[C@H]3C[C@H](C2)c2cccc(=O)n2C3)cc1,inconclusive: 7.83%
2,COc1ccc(Br)cc1CN1CCN(C(=O)Cc2ccccc2)CC1,inconclusive: 39.7%
17,C[C@]12CCC3C(C(=O)C[C@H]4C[C@@H](O)CC[C@]34C)C1CCC2=O (some centres not stated),inconclusive: 36.3%
7,CCC1CN1P(=O)(c1ccccc1)N1CC1CC (configuration not stated),inactive: 19.8%
18,OC1(c2ccc(F)cc2)CCNC1 (configuration not stated),active: 82%
12,CC(C)(Cl)[N+](=O)[O-],inconclusive: 41.3%

# The results go on:

row,Structure (SMILES),inhibition
1,COc1ccc(Cl)cc1C(=O)C1CCCN(Cc2cnc(C)s2)C1 (configuration not stated),inactive: -31.9%
2,COc1ccc(C[C@H]2NC[C@H](O)[C@H]2OC(C)=O)cc1,inactive: -40.2%
3,C=C1N2CCC(CC2)C1(O)c1ccc(C)c(C)c1 (configuration not stated),active: 51.2%
4,CCCC(=O)c1cc(CP(=O)(OCC)OCC)oc1C,active: 50.1%
5,CN1C(=O)NC(=O)C(C)(C2=CCCCC2)C1=O (configuration not stated),inactive: 17.4%
6,CNc1cc(N2CCNCC2)ccc1[N+](=O)[O-],active: 50.9%
7,COCCCNC(=O)c1c(NC(=O)c2ccccc2)n(Cc2ccccc2)c2nc3ccccc3nc12,inactive: -2.29%
8,COc1cc2c(c(OC)c1OC)-c1ccc(O)cc1C(NC(C)=O)CC2 (configuration not stated),inconclusive: 34.5%
9,Cc1cc(C)n2nc(SCC(=O)N3CCC4(CC3)OCCO4)nc2n1,inconclusive: 34.9%
10,C[C@]12CCC3C(CC[C@H]4C[C@@H](O)CC[C@]34C)C1CC[C@@H]2N (some centres not stated),inconclusive: 29.9%
11,C[n+]1c2ccccc2nc2ccc(NCCO)cc21,inconclusive: 27.1%
12,O=[N+]([O-])c1c2ccccc2cc2ccccc12,inconclusive: 48.7%
13,CC(C)N1C(=O)/C(=C/C=C/c2ccco2)C(=O)N(Cc2ccco2)C1=O,inconclusive: 45%
14,O=[N+]([O-])c1ccc(N(CCO)CCO)c2c1no[n+]2[O-],active: 60.5%
15,O=C(COc1ccccc1)N1CCN(CC(O)COc2ccccc2)CC1 (configuration not stated),inconclusive: 41.1%
16,S=C(c1ccc(Cl)cc1)N1CCOCC1,inconclusive: 45.5%
17,O=c1[nH]c(=O)n(Cc2ccco2)c(O)c1C=NCc1cccs1,inactive: 10.8%
18,COC(=O)c1c2[n+](cc3cc(OC)c(OC)cc13)CCc1cc(OC)c(OC)cc1-2,inconclusive: 31.6%
19,BrCC(Br)C1CCC(Br)C(Br)C1 (configuration not stated),inconclusive: 38.4%
20,O=C(NCc1cccnc1)NC1CCCCC1,inconclusive: 19.2%
21,O=[N+]([O-])c1ccc(N2CCOCC2)c2c1no[n+]2[O-],active: 106%
